PubChem BioAssay AID1259254, NCATS, 2017

- Screen: 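Finding genes that stop cells copying their DNA twice in one cycle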 (primary screen)
- System: human HCT116 colorectal cancer cells
- Knock-down reagent: single siRNA against human genes
- Duration: 3 days
- Measurement: 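Nuclei stained with Hoechst and imaged; cell-cycle phase assigned by DNA content; G2 share scaled per plate, non-targeting siRNA 0%, GMNN siRNA 100%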
- Direction: G2 robust z-score: higher = more G2 cells, more excess DNA replication
- Call rule: 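Active siRNAs have a G2 robust z of 5 or more median absolute deviations over the median, which in these data means about 38% or higher of GMNN control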
This is one part, drawn at random, of about 59,000 deposited reagents. About 1,550 of them (2.6%) count as active. 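G2 share is only a proxy for re-replication; each gene was hit by three separate siRNAs, and active genes were retested.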 A number with no mark means an inactive call. Reagents against one gene are numbered here. Not all columns of the deposit are shown. Not given: the amount of reagent.

Target gene | siRNA no. | G2 robust z-score
CCL1 | 1 | -1.01
CCL1 | 2 | 2.52
CCL1 | 3 | 0.793
FGF14-IT1 | 1 | 0.096
FGF14-IT1 | 2 | 3.87
FGF14-IT1 | 3 | 7.32 (active)
OR8I2 | 1 | -0.391
OR8I2 | 2 | 1.14
OR8I2 | 3 | -0.798
COX14 | 1 | 1.07
COX14 | 2 | -0.625
COX14 | 3 | -0.605
RBM34 | 1 | 0.185
RBM34 | 2 | -0.643
RBM34 | 3 | -0.407
PXMP2 | 1 | -0.576
PXMP2 | 2 | 1.93
PXMP2 | 3 | 2.39
ENAM | 1 | 1.18
ENAM | 2 | 0.0521
ENAM | 3 | -0.101
GFOD2 | 1 | 1.43
GFOD2 | 2 | -1.4
GFOD2 | 3 | 2.84
PTGES3P3 | 1 | 1.39
PTGES3P3 | 2 | -0.0418
PTGES3P3 | 3 | -0.0927
ANKS4B | 1 | 3.01
ANKS4B | 2 | -0.229
ANKS4B | 3 | -0.17
RAP1GAP2 | 1 | -1.34
RAP1GAP2 | 2 | -0.259
RAP1GAP2 | 3 | 0.32
SPINK6 | 1 | -0.0224
SPINK6 | 2 | -0.507
SPINK6 | 3 | 1.15
OAS1 | 1 | 2.46
OAS1 | 2 | 0.0199
OAS1 | 3 | 1.42
ATF4P3 | 1 | -0.626
ATF4P3 | 2 | -0.562
ATF4P3 | 3 | -0.0813
INS | 1 | 0.683
INS | 2 | 1.85
INS | 3 | 2.81
SLC37A3 | 1 | 0.463
SLC37A3 | 2 | 0.875
SLC37A3 | 3 | -0.549
RASL10B | 1 | -0.456
RASL10B | 2 | -0.313
RASL10B | 3 | -0.894
LINC00574 | 1 | -0.127
LINC00574 | 2 | 0.678
LINC00574 | 3 | -1.02
FA2H | 1 | 0.0828
FA2H | 2 | 0.773
FA2H | 3 | -0.672
MRC1 | 1 | -1.18
MRC1 | 2 | -1.17
MRC1 | 3 | 2.91
GHITM | 1 | 4.15
GHITM | 2 | -0.49
GHITM | 3 | 0.0655
GPR162 | 1 | -0.355
GPR162 | 2 | 6.9 (active)
GPR162 | 3 | 2.5
SYCP1 | 1 | 0.37
SYCP1 | 2 | -0.0023
SYCP1 | 3 | 1.28

4 entries from above, arranged by “G2 robust z-score”, high to low:
Target gene | siRNA no. | G2 robust z-score
OAS1 | 3 | 1.42
OAS1 | 2 | 0.0199
ATF4P3 | 2 | -0.562
ATF4P3 | 1 | -0.626
